Laboratory results: PubChem BioAssay AID624297 (National Center for Advancing Translational Sciences (NCATS), 2012)
Among all 340,000 compounds or so, about 6,200 (1.8%) were called active. Inconclusive results, whose numbers are uncertain, are shown with a selection of clear calls. The call rests on the fitted dose curve; in most records, active means well fitted activation curve with a large enough effect; inconclusive means small, poorly fitted or top-dose-only effect; inactive means no such curve, though single readings can be large or run the other way. Potencies beside an inconclusive call are fits to weak or partial responses and may not hold up.

Test: A quantitative high throughput screen for small molecules that induce DNA re-replication in SW480 colon adenocarcinoma cells. Further: nearly all actives have a fitted effect of over 55% in size. On re-replication activation: % of control where 0% means no effect.
Conditions: Hoechst DNA content imaging, 48 h; re-replication activation: at 46.1 µM (top of the series) unless noted
Method in brief: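 Image-based DNA-content assay: after two days of treatment, nuclei were labelled with the DNA dye Hoechst and imaged, and hits were compounds raising the count of nuclei showing high fluorescence intensity.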
Potency means the concentration at half of the fitted maximal effect.

| Compound | Potency | re-replication activation |
| --- | --- | --- |
| CC(=O)Nc1ccc(S(=O)(=O)N2c3ccccc3C(C)=CC2(C)C)cc1 | inconclusive: 14.6 µM [activator, partial curve, poor fit] | – |
| CN1CCC(N(C)S(=O)(=O)c2ccc(NC(=O)COc3ccc(Br)cc3Cl)cc2)CC1 | inactive | – |
| C[C@H]1CN([C@@H](C)CO)C(=O)c2cccc(NC(=O)C3CC3)c2O[C@H]1CN(C)C(=O)Nc1ccc2c(c1)OCO2 | inconclusive: 0.0046 µM [activator, full curve, poor fit] | – |
| Cc1cccn2c(=O)c3cc(C(=O)NCc4ccc(F)cc4)c(=N)n(CC4CCCO4)c3nc12 (configuration not stated) | – | inconclusive: -1.31% [activator] |
| C(=C\c1ccccc1)/C=N/N1CCN(Cc2ccccc2)CC1 | inconclusive: 29.1 µM [activator, single point] | – |
| COc1ccc(NC(=O)CSc2nc3n[nH]c(C)c3c(=N)n2-c2ccc(Cl)c(C)c2)cc1OC | inconclusive: 29.1 µM [activator, single point] | – |
| C=CCN1C(=O)CSc2ccc(C(=O)NC3CCCCC3)cc21 | inconclusive: 14.6 µM [activator, single point] | – |
| CCn1c(SCC(=O)N2CCCC2)nnc1-c1ccco1 | inconclusive: 1.64 µM [activator, full curve, poor fit] | – |
| Fc1ccccc1C1c2[nH]c3ccccc3c2CCN1Cc1cccn1-c1ncccn1 (configuration not stated) | inconclusive: 29.1 µM [activator, single point] | – |
| Nc1nc(Cl)nc2c1ncn2[C@@H]1O[C@H](CO)[C@H](O)C1F (some centres not stated) | inactive | – |
| CC(OC(=O)c1cccc(-n2cnnn2)c1)C(=O)Nc1ccc(N(C)C)cc1 (configuration not stated) | inactive | – |
| Cn1cc(C2NC(=O)c3ccccc3N2)c2ccccc21 (configuration not stated) | active: 5.8 µM | – |
| O=C1CC(c2ccccc2)=NN1c1ccc([N+](=O)[O-])cc1 | inconclusive: 20.6 µM [activator, single point] | – |
| O=C(Cn1nnc(-c2ccc(Cl)cc2)n1)NC1CCS(=O)(=O)C1 (configuration not stated) | inconclusive: 14.6 µM [activator, single point] | – |
| CCOc1ccc(-c2cn[nH]c2N)cc1 | inconclusive: 23.1 µM [activator, single point] | – |
| CCC(C)(C)n1nnnc1C(c1ccc(O)c(OC)c1)N1CCc2ccccc2C1 (configuration not stated) | inconclusive: 13 µM [activator, partial curve] | – |
| Cc1ccc(S(=O)(=O)N/N=C/c2cccc([N+](=O)[O-])c2)cc1 | inactive | – |
| CCN(CC)c1ccc(-c2nc3cnccn3c2NC2CCCC2)cc1 | active: 20.6 µM | – |
| O=C1C(=O)N(CC2COc3ccccc3O2)c2ccccc21 (configuration not stated) | inconclusive: 29.1 µM [activator, single point] | – |
| CC(=O)Nc1cccc(NC(=O)CSc2nc(C)c(C)c(C)c2C#N)c1 | inactive | – |
| O=C(CSc1ccc(F)cc1)Nc1ccc(C2SCCS2)cc1 | inconclusive: 9.2 µM [activator, single point] | – |
| CN1CCCN(c2ncnc3scc(-c4ccc(F)cc4)c23)CC1 | inactive | – |
| O=C(NCC1CCCO1)c1nn2c(C(F)(F)F)cc(-c3cc(Br)cs3)nc2c1Br (configuration not stated) | active: 5.8 µM | – |

Quoted from the listing:
Potency, O=C1C(=O)N(CC2COc3ccccc3O2)c2ccccc21 (configuration not stated) is entered as inconclusive: 29.1 µM [activator, single point]
Potency, CCn1c(SCC(=O)N2CCCC2)nnc1-c1ccco1 is entered as inconclusive: 1.64 µM [activator, full curve, poor fit]
Potency, CCC(C)(C)n1nnnc1C(c1ccc(O)c(OC)c1)N1CCc2ccccc2C1 (configuration not stated) is entered as inconclusive: 13 µM [activator, partial curve]

(list continues)

| Compound | Potency | re-replication activation |
| --- | --- | --- |
| O=C(COC(=O)c1cc[n+]([O-])cc1)Nc1ccc(Cl)c(C(F)(F)F)c1 | inconclusive: 29.1 µM [activator, single point] | – |
| Cc1cc(C=C2C(=O)c3ccccc3C2=O)c(C)n1-c1ccccc1 | inactive | – |
| CCN1CCN(CCC(=O)Nc2ccc(Br)cc2)CC1 | inconclusive: 29.1 µM [activator, single point] | – |
| CCOC(=O)Cc1csc(SCC(=O)NC2CCC(C)CC2)n1 (configuration not stated) | inconclusive: 3.66 µM [activator, partial curve, poor fit] | – |
| CN(C)c1ccc(C(=O)NCc2ccc3c(c2)OCO3)cc1 | inactive | – |
| CCOC(=O)c1sc2nc(C(C)C)c3c(c2c1N)CC(C)(C)OC3 | inconclusive: 9.2 µM [activator, partial curve] | – |
| COc1ccc(/C=C/C(=O)O)cc1S(=O)(=O)NCC1CCCO1 (configuration not stated) | inconclusive: 23.1 µM [activator, single point] | – |
| N=C1C(c2nc3ccccc3[nH]2)=C(O)CN1c1ccccc1 | inconclusive: 29.1 µM [activator, single point] | – |
| COCCN(C(=O)COC(=O)/C=C/c1ccc(C)o1)c1c(N)n(Cc2ccccc2)c(=O)[nH]c1=O | inconclusive: 0.103 µM [activator, full curve, poor fit] | – |
| c1ccc(-c2nc(NCc3ccco3)c3ccccc3n2)nc1 | active: 5.8 µM | – |
| COc1cccc(CNC(=O)c2ccc(C3SCCS3)cc2)c1 | inconclusive: 1.84 µM [activator, single point] | – |
| CCOc1ccc2nc(NCCCNS(=O)(=O)c3ccc(C)cc3)c(C#N)cc2c1 | inconclusive: 6.51 µM [activator, single point] | – |
| Cc1cc(NC(=O)c2ccccc2F)n(C(C)(C)C)n1 | inconclusive: 2.91 µM [activator, full curve, poor fit] | – |
| Nc1nc(Cl)cc(Oc2ccccc2F)n1 | inconclusive: 29.1 µM [activator, single point] | – |
| Cc1cc(Cl)ccc1OCC(=O)N/N=C/c1ccncc1 | inconclusive: 18.4 µM [activator, single point] | – |
| CC(C)n1c(SCC(=O)NC2CC2)nnc1-c1ccco1 | inconclusive: 29.1 µM [activator, single point] | – |
| c1ccc2[nH]c3cc4ncnc4cc3nc2c1 | inactive | – |
| O=C(NCCS(=O)(=O)N1CCN(Cc2ccccc2)CC1)c1ccccc1 | inconclusive: 5.8 µM [activator, single point] | – |
| O=C(NCCCN1CCOCC1)c1ccccc1N1C(=O)[C@@H]2Cc3c([nH]c4ccccc34)C(c3cccc(Cl)c3)N2C1=O (some centres not stated) | inconclusive: 13 µM [activator, single point] | – |
| Cc1ccc(-n2c(SCCN)nnc2-c2cccc(C)c2)cc1 | inconclusive: 20.6 µM [activator, single point] | – |
| CCOC(=O)c1c(-c2ccc(C)o2)csc1NC(=S)NC(=O)c1ccccc1Br | inconclusive: 29.1 µM [activator, single point] | – |
| CCc1ccc(NS(=O)(=O)c2ccc3c(c2)oc(=O)n3C)cc1 | inactive | – |
| CC1=C(C(N)=O)C(c2cccc(OCc3ccccc3)c2)n2nnnc2N1 (configuration not stated) | inconclusive: 0.0005 µM [activator] | – |

| Compound | Potency | re-replication activation |
| --- | --- | --- |
| CCN(CC)CCNC(=O)c1ccc(NC(=O)c2cn(-c3ccccc3)nc2-c2cccs2)cc1 | inconclusive: 20.6 µM [activator, single point] | – |
| CCN=C1SC(C(=O)NCCc2ccccc2)CC(=O)N1CC (configuration not stated) | inactive | – |
| O=[N+]([O-])c1c(C(Cl)Cl)nn(-c2ccccc2)c1N1CCOCC1 | inconclusive: 0.146 µM [activator, full curve, poor fit] | – |
| CN1CCN(CCc2nc3cc(NC(=O)COc4ccc([N+](=O)[O-])cc4)ccc3n2C)CC1 | inconclusive: 20.6 µM [activator, single point] | – |
| N#Cc1nc(N2CCCCC2)nc(N2CCOCC2)n1 | inactive | – |
| O=c1c(-c2ccc(F)cc2)[n+]([O-])c2ccccc2n1OCc1ccccn1 | inconclusive: 18.4 µM [activator, partial curve, poor fit] | – |
| COc1ccc(-c2n(Cc3ccccc3)c3ccccc3[n+]2Cc2ccccc2)cc1 | inconclusive: 16.4 µM [activator, single point] | – |
| CC(=O)N1CCN(c2nc(-c3cccs3)nc3ccccc23)CC1 | inconclusive: 5.8 µM [activator, full curve, poor fit] | – |
| C[C@H](NC(=O)CCCOc1ccc(Cl)cc1Cl)c1nnc2ccccn12 | inconclusive: 29.1 µM [activator, single point] | – |
| COc1ccc(/C=N/NC(=O)c2sccc2C)c2ccccc12 | inconclusive: 29.1 µM [activator, single point] | – |
| O=C(CN1CCN(Cc2ccccc2Cl)CC1)N/N=C/c1ccccn1 | inconclusive: 0.651 µM [activator, full curve, poor fit] | – |
| O=C(Nc1ccc(F)cc1)c1cc(S(=O)(=O)N2CCCCC2)ccc1F | inconclusive: 18.4 µM [activator, single point] | – |
| Fc1ccccc1/C=C1\CCCC2=C1Nc1nnnn1C2c1ccccc1F (configuration not stated) | inactive | – |
| COc1ccc(-n2c(C)cc(SC)c(C(C)=O)c2=S)cc1 | inconclusive: 29.1 µM [activator, partial curve, poor fit] | – |
| CC(=O)S[C@@H]1CC2=CC(=O)CC[C@]2(C)[C@H]2CC[C@@]3(C)[C@@H](CC[C@@]34CCC(=O)O4)[C@H]12 | inconclusive: 2.51 µM [activator, partial curve, poor fit] | – |
| COc1ccc(CNC(=O)CCn2c(C)csc2=O)cc1 | inactive | – |
| O=C(NCCC1=CCCCC1)c1coc(=O)c(Br)c1 | active: 9.2 µM | – |
| CCCOc1ccc2cc(-c3ccccn3)c(=O)oc2c1 | inconclusive: 29.1 µM [activator, single point] | – |
| COc1cccc(C(=O)NN/C(C)=C/C(=O)C(F)(F)C(F)(F)C(F)(F)F)c1 | inconclusive: 18.4 µM [activator, single point] | – |
| COc1ccc(NC(=O)C2CCCN(S(=O)(=O)c3cccc4nonc34)C2)c(OC)c1 (configuration not stated) | inconclusive: 32.6 µM [activator, single point] | – |
| CCN(C(=O)CSc1nnc(-c2ccncc2)o1)c1ccccc1 | inconclusive: 29.1 µM [activator, single point] | – |
